Laboratory results published in publication PMC7493855.
No constants are given. Whether binding was seen depends on the method and setting. In cells and extracts the contact can be indirect. These calls come from enrichment with a bait or labelling near it, and not all partners need be listed.

By UniProt entry, the sequences of proteins in these tests, tags left out.
UniProt Q3URK3: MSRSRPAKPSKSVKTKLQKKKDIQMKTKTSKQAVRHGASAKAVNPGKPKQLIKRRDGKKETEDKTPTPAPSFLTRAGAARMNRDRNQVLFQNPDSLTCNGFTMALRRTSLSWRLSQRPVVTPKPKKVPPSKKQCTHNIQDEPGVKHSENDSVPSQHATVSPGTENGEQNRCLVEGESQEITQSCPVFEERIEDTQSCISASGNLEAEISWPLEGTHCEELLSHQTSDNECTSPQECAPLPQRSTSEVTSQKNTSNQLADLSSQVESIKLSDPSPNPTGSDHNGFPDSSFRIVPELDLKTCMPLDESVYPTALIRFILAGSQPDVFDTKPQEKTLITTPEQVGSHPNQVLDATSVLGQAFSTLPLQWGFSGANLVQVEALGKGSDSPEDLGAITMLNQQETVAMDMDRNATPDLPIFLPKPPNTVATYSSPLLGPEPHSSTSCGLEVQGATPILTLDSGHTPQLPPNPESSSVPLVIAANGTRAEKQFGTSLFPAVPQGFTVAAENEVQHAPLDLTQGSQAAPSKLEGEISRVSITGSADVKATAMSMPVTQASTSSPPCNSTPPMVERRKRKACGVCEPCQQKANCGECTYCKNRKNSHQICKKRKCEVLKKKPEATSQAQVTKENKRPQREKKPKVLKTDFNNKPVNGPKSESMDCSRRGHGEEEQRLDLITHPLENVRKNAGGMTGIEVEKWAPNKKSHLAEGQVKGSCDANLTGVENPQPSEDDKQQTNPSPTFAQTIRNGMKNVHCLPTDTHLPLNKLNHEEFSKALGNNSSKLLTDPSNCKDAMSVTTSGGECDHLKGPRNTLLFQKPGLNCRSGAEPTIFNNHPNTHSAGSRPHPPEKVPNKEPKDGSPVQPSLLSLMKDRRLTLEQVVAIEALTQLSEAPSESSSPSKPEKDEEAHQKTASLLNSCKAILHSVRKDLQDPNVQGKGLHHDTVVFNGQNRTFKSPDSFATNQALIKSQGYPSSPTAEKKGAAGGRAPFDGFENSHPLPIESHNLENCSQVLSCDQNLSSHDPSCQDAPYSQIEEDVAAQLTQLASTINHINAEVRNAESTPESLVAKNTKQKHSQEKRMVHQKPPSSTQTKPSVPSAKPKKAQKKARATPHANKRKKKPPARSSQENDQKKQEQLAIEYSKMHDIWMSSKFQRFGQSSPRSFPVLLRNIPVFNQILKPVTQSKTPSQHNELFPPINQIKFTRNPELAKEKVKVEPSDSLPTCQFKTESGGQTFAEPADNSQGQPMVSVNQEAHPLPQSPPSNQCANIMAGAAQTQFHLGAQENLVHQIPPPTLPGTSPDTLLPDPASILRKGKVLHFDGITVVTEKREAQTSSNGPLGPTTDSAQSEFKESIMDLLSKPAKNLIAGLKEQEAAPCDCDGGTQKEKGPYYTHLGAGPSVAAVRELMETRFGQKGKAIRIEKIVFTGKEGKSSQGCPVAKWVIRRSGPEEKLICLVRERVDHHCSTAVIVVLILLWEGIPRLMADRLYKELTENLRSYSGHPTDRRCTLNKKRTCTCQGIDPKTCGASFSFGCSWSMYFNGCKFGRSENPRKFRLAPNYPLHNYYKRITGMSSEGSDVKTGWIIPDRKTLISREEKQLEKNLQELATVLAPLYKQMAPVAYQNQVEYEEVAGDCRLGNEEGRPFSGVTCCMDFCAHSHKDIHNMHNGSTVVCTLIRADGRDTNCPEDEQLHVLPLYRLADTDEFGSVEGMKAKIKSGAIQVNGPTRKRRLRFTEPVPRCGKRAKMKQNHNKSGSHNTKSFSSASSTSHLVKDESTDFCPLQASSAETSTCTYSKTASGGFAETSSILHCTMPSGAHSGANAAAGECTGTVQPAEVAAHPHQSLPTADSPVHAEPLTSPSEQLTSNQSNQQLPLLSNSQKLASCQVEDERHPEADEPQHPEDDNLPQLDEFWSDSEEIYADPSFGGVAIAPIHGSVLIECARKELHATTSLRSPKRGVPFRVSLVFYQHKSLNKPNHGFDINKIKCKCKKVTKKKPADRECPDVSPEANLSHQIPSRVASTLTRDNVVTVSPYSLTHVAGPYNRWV

B1: Nup107 (protein, UniProt Q8BH74 1-926)
chain: MDRSGFGGMSSPVIRDAEVTRTARKHSAHKRVLIQANQEDNFGTATPRSQIIPRTPSSFRQPFVTPSSRSLLRHPDISYILGTEGRSPRHTQSSGYLGNLSMVTNLDDSNWAAAFSSQRLGLYTNTEHHSMTEDVNLSTVMLREDDPGEAASMSMFSDFLHSFLKHSSTTVFDLVEEYENICGSQVNILSKIVSRATPGLQKFSKTASMLWLLQQEMVTWRLLASLYRDRIQSSLEEENMFAIAGINASEKMVVETLFQRDSLVRQSQLVVDWLESIAKDEIGEFSDNIEFYAKSVYWENTLHSLKQRQLLSHMGSTRPLVTELDPDAPIRQKLPLDDLDREDEVRLLKYLFTLIRAGMTEEAQRLCKRCGQAWRAATLEGWKLYHDPNVNGGTELEPVEGNPYRRIWKISCWRMAEDELFNKYERAIYAALSGNLKQLLPVCDTWEDTVWAYFRVMVDSLVEQEIRTSVMTQDDSEELPREYMEANWTLEKVFEELQATDKKRVLEENQEHYHIVQKFLILGDVDGLMDEFSKWLSKSGSSLPGHLLRFMTHLILFLRTLGLQTKEEVSIEVLKTYIQLLISEKHTSLIAFYTCHLPQDLAVAQYALFLEGVTEFEQRHQCLELAKEADLDVATITKTVVENICKKDNGEFSHHDLAPSLDTGTTEEDRLKIDVIDWLVFDPAQRAEALRQGNAIMRKFLALKKHEAAKEVFVKIPQDSIAEIYNQWEEQGMESPLPAEDDNAIREHLCIRAYLEAHETFNEWFKHMNSAPQKPTLLSQATFTEKVAYEHREKKYEMDHNIWKGHLDALTADVKEKMYNVLLFVDGGWMVDVREDAEDDPERTHQMVLLRKLCLPMLCFLLHTILHSTGQYQECLQLADMVSSERHKLYLVFSKEELRKLLQKLRESSLMLLDQGLDPLGYEIQS
B2: Nup160 (protein, UniProt Q9Z0W3 1-1402)
chain: MAAAGSLERSFVELSGAERERPRHFREFTVCDIGTASAAFGTVKYSESAGGFYYVESGKLFSITRNRFIHWKTSGDTLELVEESLDLNLLNNAVRLKFQNYNILPGGVHVSETQNHVIILILTNQTVHRLILPHPSRMYRSELVTESQMQSIFTDIGKVDFRDPCNSQLIPSVPGLSPGSTTSAAWLSSDGEALFALPSASGGIFVLKLPPYDVPGIASVVELKQSSVMQRLLTGWMPTAIRGDHGPSDRALSLAVHCVEHDAFIFALCQDHKLRMWSYKDQMCLMVADMLEYVPVNKDLRLTAGTGHKLRLAYSPSMGLYLGIYMHAPKRGQFCVFQLVSTENNRYSLDHISSLFTSQETLVDFALTSTDIWALWHDAENQTIVKYINFEHNVAGQWNPVFMQPLPEEEIVIRDDQDPREMYLRSLFTPGHFINAALCKALQIFCRGTERNLDLSWNELKKEITLAVENELQGSVTEYEFSQDEFRTLQQEFWCKFYACVLQYQEALSHPLALHLNPVTNMVCLLKKGYLSFLVPSSLVDHLYLLPDEHLLTEDETTISDDADVARDVLCLIKCLRMIGESVTMDMAVLMETSCYNLQSPEKAAEHILEDLITIDVENVMEDICSKLQEIRNPVHAIGLLIREMDYETEVEMEKGFDPAQPLNVRMNLSQLYGSSTAGYIVCRGVYKIASTRFLICRDLLILQQLLTRLGDAVILGAGQLFQAQQDLLHRTAPLLLSYYLIKWASQCLATDVPVDTLESNLQHLSVLELTDSGALMANKLVSSPQTIMELFFQEVARKQIISHLFSQPKAPLSQTGLNWPEMITAVTGYLLQLLWPSNPGCLFLECLMGNCQYVQLQDYIQLLHPWCQVNVGSCRFMLGRCYLVTGEVQKALECFCQAASEVGKEEFLDRLIRSEDGEIVSTPKLQYYDKVLRLLDVVGLPELVIQLATSAITEAGDDWKSQATLRTCIFKHHLDLGHNSQAYEALTQIPDSSRQLDCLRQLVVVLCERSQLQDLVEFPYVNLHNEVVGIIESRARAVDLMTHNYYELLYAFHIYRHNYRKAGTVMFEYGMRLGREVRTLRGLEKQGNCYLAAINCLRLIRPEYAWIVQPASGAVSDRPGASPKRNHDGECTAAPTNRQIEILELEDLEKEYSLARIRLTLARHDPSVIAIAGSSSAKEMSALLVQAGLFDTAISLCQTFTLPLTPVFEGLAFKCIKLQFGGEAAQGEAWSWLATNQLSSVITTKESSATDEAWRLLSTYLERYKVQNNLYHHCVINKLLSHGVPLPNWLINSYKKVDAAELLRLYLNYDLLEEAVDLVSEYVDAVLGKGHQYFGIEFPLSATAPMVWLPYSSIDQLLQALGENSANSHNIILSQKILDKLEDYQQKVDKATRDLLYRRDL

Biological target: TET1 (ten-eleven translocation 1), endogenous in oligodendrocyte lineage cells (mouse (endogenous in primary mouse OPCs and OLs)) (UniProt Q3URK3)
Test: affinity purification with mass spectrometry; IP of endogenous TET1 (rabbit anti-TET1, Catch and Release kit) from RIPA lysate of mouse mature OLs; normal IgG as control; SDS-PAGE, in-gel trypsin digestion, LC-MS/MS; done twice

Row | binding | Binder
1 | binds | B1
2 | binds | B2
